This is one part of the list.
Legend:
Assay in all cases: glycan array binding signal (z-score within array); higher = stronger binding
Details in all cases: glycan notation: IUPAC condensed, linker removed
[1] = biological target: Neu5Ac(a2-6)Gal(b1-4)GlcNAc(b1-2)Man(a1-3)[Man(a1-6)]Man(b1-4)GlcNAc(b1-4)GlcNAc
In short: (§1)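 Arrays were curated from the Consortium for Functional Glycomics database, 3228 in total, and kept only where the protein sequence was available. Binding is expressed as a within-array Z-score. This score was averaged across arrays of the same protein sequence at different concentrations or buffers and across linkers, and negative values can be read as non-binding.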

[2] = biological target: Neu5Ac(a2-6)Gal(b1-4)GlcNAc(b1-2)Man(a1-3)[Neu5Ac(a2-3)Gal(b1-4)GlcNAc(b1-2)Man(a1-6)]Man(b1-4)GlcNAc(b1-4)GlcNAc
In short: as §1

[3] = biological target: Neu5Ac(a2-6)Gal(b1-4)GlcNAc(b1-2)Man(a1-3)[Neu5Ac(a2-6)Gal(b1-4)GlcNAc(b1-2)Man(a1-6)]Man(b1-4)GlcNAc(b1-4)GlcNAc
In short: as §1

[4] = biological target: Neu5Ac(a2-6)Gal(b1-4)GlcNAc(b1-2)Man(a1-3)[Neu5Ac(a2-6)Gal(b1-4)GlcNAc(b1-2)Man(a1-6)]Man(b1-4)GlcNAc(b1-4)[Fuc(a1-6)]GlcNAc
In short: as §1

[5] = biological target: Neu5Ac(a2-6)Gal(b1-4)GlcNAc(b1-2)Man(a1-6)Man(b1-4)GlcNAc(b1-4)GlcNAc
In short: as §1

[6] = biological target: Neu5Ac(a2-6)Gal(b1-4)GlcNAc(b1-2)Man(a1-6)[Gal(b1-4)GlcNAc(b1-2)Man(a1-3)]Man(b1-4)GlcNAc(b1-4)GlcNAc
In short: as §1

[7] = biological target: Neu5Ac(a2-6)Gal(b1-4)GlcNAc(b1-2)Man(a1-6)[GlcNAc(b1-2)Man(a1-3)]Man(b1-4)GlcNAc(b1-4)GlcNAc
In short: as §1

[8] = biological target: Neu5Ac(a2-6)Gal(b1-4)GlcNAc(b1-2)Man(a1-6)[Man(a1-3)]Man(b1-4)GlcNAc(b1-4)GlcNAc
In short: as §1

[9] = biological target: Neu5Ac(a2-6)Gal(b1-4)GlcNAc(b1-2)[Neu5Ac(a2-6)Gal(b1-4)GlcNAc(b1-4)]Man(a1-3)[GlcNAc(b1-4)][Neu5Ac(a2-6)Gal(b1-4)GlcNAc(b1-2)[Neu5Ac(a2-6)Gal(b1-4)GlcNAc(b1-6)]Man(a1-6)]Man(b1-4)GlcNAc(b1-4)GlcNAc
In short: as §1

[10] = biological target: Neu5Ac(a2-6)Gal(b1-4)GlcNAc(b1-2)[Neu5Ac(a2-6)Gal(b1-4)GlcNAc(b1-4)]Man(a1-3)[GlcNAc(b1-4)][Neu5Ac(a2-6)Gal(b1-4)GlcNAc(b1-4)Man(a1-6)]Man(b1-4)GlcNAc(b1-4)GlcNAc
In short: as §1

[11] = biological target: Neu5Ac(a2-6)Gal(b1-4)GlcNAc(b1-2)[Neu5Ac(a2-6)Gal(b1-4)GlcNAc(b1-6)]Man(a1-6)[Neu5Ac(a2-6)Gal(b1-4)GlcNAc(b1-2)Man(a1-3)][GlcNAc(b1-4)]Man(b1-4)GlcNAc(b1-4)GlcNAc
In short: as §1

[12] = biological target: Neu5Ac(a2-6)Gal(b1-4)GlcNAc(b1-3)Gal(b1-3)GlcNAc
In short: as §1

[13] = biological target: Neu5Ac(a2-6)Gal(b1-4)GlcNAc(b1-3)Gal(b1-4)GlcNAc
In short: as §1

[14] = biological target: Neu5Ac(a2-6)Gal(b1-4)GlcNAc(b1-3)Gal(b1-4)GlcNAc(b1-2)Man(a1-3)[Neu5Ac(a2-6)Gal(b1-4)GlcNAc(b1-3)Gal(b1-4)GlcNAc(b1-2)Man(a1-6)]GalNAc
In short: as §1

[15] = biological target: Neu5Ac(a2-6)Gal(b1-4)GlcNAc(b1-3)Gal(b1-4)GlcNAc(b1-3)Gal(b1-4)GlcNAc
In short: as §1

[16] = biological target: Neu5Ac(a2-6)Gal(b1-4)GlcNAc(b1-3)Gal(b1-4)GlcNAc(b1-3)Gal(b1-4)GlcNAc(b1-2)Man(a1-3)[Neu5Ac(a2-6)Gal(b1-4)GlcNAc(b1-3)Gal(b1-4)GlcNAc(b1-3)Gal(b1-4)GlcNAc(b1-2)Man(a1-6)]GalNAc
In short: as §1

[17] = biological target: Neu5Ac(a2-6)Gal(b1-4)GlcNAc(b1-3)Gal(b1-4)GlcNAc(b1-3)GalNAc
In short: as §1

[18] = biological target: Neu5Ac(a2-6)Gal(b1-4)GlcNAc(b1-3)Gal(b1-4)GlcNAc(b1-3)[Neu5Ac(a2-6)Gal(b1-4)GlcNAc(b1-3)Gal(b1-4)GlcNAc(b1-6)]GalNAc
In short: as §1

[19] = biological target: Neu5Ac(a2-6)Gal(b1-4)GlcNAc(b1-3)Gal(b1-4)GlcNAc(b1-6)[Gal(b1-3)]GalNAc
In short: as §1

[20] = biological target: Neu5Ac(a2-6)Gal(b1-4)GlcNAc(b1-3)Gal(b1-4)[Fuc(a1-3)]GlcNAc(b1-3)Gal(b1-4)[Fuc(a1-3)]GlcNAc
In short: as §1

[21] = biological target: Neu5Ac(a2-6)Gal(b1-4)GlcNAc(b1-3)GalNAc
In short: as §1

[22] = biological target: Neu5Ac(a2-6)Gal(b1-4)GlcNAc(b1-3)[Neu5Ac(a2-6)Gal(b1-4)GlcNAc(b1-6)]GalNAc
In short: as §1

[23] = biological target: Neu5Ac(a2-6)Gal(b1-4)GlcNAc(b1-6)GalNAc
In short: as §1

[24] = biological target: Neu5Ac(a2-6)Gal(b1-4)GlcNAc(b1-6)[Gal(b1-3)GlcNAc(b1-3)]Gal(b1-4)Glc
In short: as §1

[25] = biological target: Neu5Ac(a2-6)Gal(b1-4)GlcNAc(b1-6)[Gal(b1-3)]GalNAc
In short: as §1

[26] = biological target: Neu5Ac(a2-6)Gal(b1-4)GlcNAc6S
In short: as §1

[27] = biological target: Neu5Ac(a2-6)GalNAc
In short: as §1

[28] = biological target: Neu5Ac(a2-6)GalNAc(b1-4)GlcNAc
In short: as §1

[29] = biological target: Neu5Ac(a2-6)GalNAc(b1-4)GlcNAc6S
In short: as §1

[30] = biological target: Neu5Ac(a2-6)GlcNAc(b1-4)GlcNAc
In short: as §1

[31] = biological target: Neu5Ac(a2-6)GlcNAc(b1-4)GlcNAc(b1-4)GlcNAc
In short: as §1

B1: PX9937I-bfa-538-26-538 (Bacteroides fragilis) (protein)
chain: DKLDLSPIDYYGSGSYWKTEAQATAYIDGIHKHLRDAAWQHTITFGELRGGRFITGASSDGMGVSNGDIILQNFDETHTGVSKFGDLFGRITNLNLFIARVTDATYLSDEMKNFYLGEVYGLRAFYYFDLYRIYGGVPLRLTADVVEGVIDPNKLYMARSTPKEVMTQIKSDLNKSMEYFGNMNDFDPYKRGKKVYWSKAATECLMGEVYLWTSKVTTGDDVANPADLTIAKTHLESVLNNYNLKMLDDFSQVFNAKNKANDEIIFAIRFLEGEATNSNGTFTYNVGTGSTKNRYQANGEVFGDALDIQNTGNQTYEYNKAVYQNFDDADTRKEATFIASYNKDGKTGELSLYGTHVRKNIGYVNAQGARVYCGDYIFYRLPWVYLTLAEIANMEGDNAAVAKYINLVRKRAYGNAWDETLYAYPETADFTTNELAILHEKDKEFIQEGQRWWDLRRMTLTKGGTPLVFCKEGSLLGDAPILNKSTEAHKLLWPIEKTMLNKDPALEQTPGYK
With B1 the “glycan array binding signal (z-score)” value [1] was -0.455, the “glycan array binding signal (z-score)” value [2] was -0.093 and the “glycan array binding signal (z-score)” value [3] was 0.045. For the same binder, the “glycan array binding signal (z-score)” value [4] was -0.233, the “glycan array binding signal (z-score)” value [5] was -0.458 and the “glycan array binding signal (z-score)” value [6] was 0.133. The “glycan array binding signal (z-score)” value [7] was -0.553, the “glycan array binding signal (z-score)” value [8] was -0.345 and the “glycan array binding signal (z-score)” value [9] was -0.821. The “glycan array binding signal (z-score)” value [10] was -0.258, the “glycan array binding signal (z-score)” value [11] was -0.325 and the “glycan array binding signal (z-score)” value [12] was 0.352. The “glycan array binding signal (z-score)” value [13] was 0.057, the “glycan array binding signal (z-score)” value [14] was -0.296 and the “glycan array binding signal (z-score)” value [15] was 0.938. For the same binder, the “glycan array binding signal (z-score)” value [16] was 1.61, the “glycan array binding signal (z-score)” value [17] was -0.147 and the “glycan array binding signal (z-score)” value [18] was -0.643. For the same binder, the “glycan array binding signal (z-score)” value [19] was -0.728, the “glycan array binding signal (z-score)” value [20] was 0.356 and the “glycan array binding signal (z-score)” value [21] was -1.06. For the same binder, the “glycan array binding signal (z-score)” value [22] was -0.593, the “glycan array binding signal (z-score)” value [23] was -0.056 and the “glycan array binding signal (z-score)” value [24] was -0.63. For the same binder, the “glycan array binding signal (z-score)” value [25] was 0.235, the “glycan array binding signal (z-score)” value [26] was -0.184 and the “glycan array binding signal (z-score)” value [27] was -0.586. For the same binder, the “glycan array binding signal (z-score)” value [28] was -0.277, the “glycan array binding signal (z-score)” value [29] was -0.9 and the “glycan array binding signal (z-score)” value [30] was -0.188. For the same binder, the “glycan array binding signal (z-score)” value [31] was 0.288.

From the supplement of paper PMC8728848
